From patent US9669031B2, “MNK inhibitors and methods related thereto” (eFFECTOR Therapeutics, Inc., priority 2014, dated 2017)

Tests used:
in vivo [1] = conditions: female, Balb/c, mouse, po, 10 mg/kg
in vivo [2] = conditions: female, Balb/c, mouse, iv, 1 mg/kg
[3] = Pharmacokinetics in Balb/c mice, single oral gavage administration

AUC(0-t) (in vivo [1]): 4650 ng·h/mL | Cmax (in vivo [1]): 2500 ng/mL | half-life (in vivo [1]): 2.1 h | AUC(0-inf) (in vivo [2]): 600 ng·h/mL | Vd (in vivo [2]): 2.49 L/kg | half-life (in vivo [2]): 1.51 h | Tlast ([3]; Balb/c mice, oral gavage 10 mg/kg, formulation 10NMP/90PEG400, gender F): 8 h | Tmax ([3]; female, Balb/c, mouse, in vivo, po, 10 mg/kg): 0.3 h
Structure (SMILES): Cc1cc(Nc2cc(N)ncn2)c(=O)n2c1C(=O)NC21CCC(F)(F)CC1.Cl [Cpd. No. 103, 6-[(6-aminopyrimidin-4-yl)amino]-4′,4′-difluoro-8-methyl-spiro[2H-imidazo[1,5-a]pyridine-3,1′-cyclohexane]-1,5-dione hydrochloride]
